Hit rate of the full screen: of about 320,000 compounds, about 22,000 (6.9%) were called active. Inconclusive results, whose numbers are uncertain, are shown with a selection of clear calls. The call rests on the fitted dose curve; in most records, active means well fitted inhibition curve with a large enough effect; inconclusive means small, poorly fitted or top-dose-only effect, or another doubt; inactive means no such curve, though single readings can be large or run the other way. Potencies of inconclusive entries are doubtful fits and often do not repeat.
Assay: Primary qHTS for delayed death inhibitors of the malarial parasite plastid, 96 hour incubation
Conditions: P. falciparum luciferase reporter growth; series mostly up to 28.7 µM; activity change, negative = inhibition: at the top concentration
How it was run: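 Compounds incubated with erythrocytes infected by luciferase-expressing P. falciparum (2% hematocrit, 0.05% parasitemia final) for 96 hours, 37 C in 5% CO2. Growth inhibition scored as decreased luciferase luminescence.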
In the case of COC(=O)[C@@]12CCCCN1[C@H](c1ccc(SC3CCCCC3)cc1)[C@@H]1C(=O)N(C)C(=O)[C@@H]12, the “activity change, negative = inhibition” value is reported as inactive: 36.9%.
For N#CCSCC(=O)Nc1ccccc1, the “activity change, negative = inhibition” value was inactive: 151%.
With COc1ccc(C(=O)N/C(=C\c2cn(C)c3ccccc23)C(=O)NCCCn2ccnc2)cc1OC the Potency was inconclusive: 10.4 µM [inhibitor, single point].
For CCN(C(=O)Cn1cnc2c1c(=O)n(C)c(=O)n2C)C1CCCCC1, the “activity change, negative = inhibition” value was inactive: 57.3%.
With CCn1cnnc1SCC(=O)c1c(N)n(C2CC2)c(=O)[nH]c1=O the Potency was inconclusive: 18.5 µM [inhibitor, single point].
In the case of CCC(C)n1c(=N)c(C#N)cc2c(=O)n3cc(C)ccc3nc21 (configuration not stated), the Potency is reported as inconclusive: 18.5 µM [inhibitor, single point].
With CCOC(=O)Cc1cnc(NC(=O)CSc2nc(C)cc(C)n2)s1 the Potency was active: 10.4 µM.
For COCC(=O)N(Cc1ccccc1)c1ccccn1, the Potency was inconclusive: 0.657 µM [inhibitor, partial curve, poor fit].
In the case of Cc1noc(NS(=O)(=O)c2ccc(NC(=O)c3nn(-c4ccccc4)ccc3=O)cc2)c1C, the Potency is reported as inconclusive: 20.8 µM [inhibitor, partial curve, poor fit].
For CC(Sc1nnc(Nc2ccccc2)s1)C(=O)NC1CCCc2ccccc21 (configuration not stated), the Potency was inconclusive: 16.5 µM [inhibitor, single point].
In the case of COc1cccc(C(=O)NNC(=O)C(=O)N2CCCCC2)c1, the “activity change, negative = inhibition” value is reported as inactive: 3.6%.
In the case of COC(=O)[C@H](Cc1ccccc1)NC(=O)C1CCN(C(=O)[C@H](C)NS(=O)(=O)c2ccc(C)cc2)CC1, the Potency is reported as inconclusive: 18.5 µM [inhibitor, single point].
With Cc1ccc(C(=O)Oc2ccc(C(=S)N3CCOCC3)cc2)cc1 the “activity change, negative = inhibition” value was inactive: -3.89%.
In the case of CC(C)CCN1CCN(C/C=C/c2ccco2)CC1CCO (configuration not stated), the Potency is reported as inconclusive: 18.5 µM [inhibitor, single point].
With COc1cc(SC)ccc1C(=O)Nc1cccc(S(=O)(=O)NC2=NCCCCC2)c1 the Potency was inconclusive: 7.38 µM [inhibitor, partial curve].
In the case of CN(C)C(=O)COC(=O)Cc1ccc(OC(=O)c2ccc(N=C(N)N)cc2)cc1, the Potency is reported as inconclusive: 2.69 µM [inhibitor, full curve, poor fit].
In the case of O=C(c1ccc(N2CCCC2)c([N+](=O)[O-])c1)N1CCN(S(=O)(=O)c2ccc(Cl)cc2)CC1, the Potency is reported as inconclusive: 5.22 µM [inhibitor, partial curve].
For COc1ccc(C(=O)N2CCCCC2)cc1S(=O)(=O)Nc1cccc(C(=O)O)c1, the Potency was inconclusive: 8.28 µM [inhibitor, partial curve, poor fit].
With O=C(Nc1ccc2c(c1)oc1ccccc12)c1cccnc1 the Potency was active: 2.08 µM.
With COc1cccc2c1cc1c(=O)n(CC(=O)NCCCN3CCCCC3)nc(C)n12 the Potency was inconclusive: 18.5 µM [inhibitor, single point].
In the case of COCCN(C(=O)Cn1nnc2ccccc21)C(C(=O)NC1CCCCC1)c1ccc(OC)cc1OC (configuration not stated), the Potency is reported as inconclusive: 10.4 µM [inhibitor, single point].
For Cc1csc(SCC(=O)Nc2nccs2)n1, the “activity change, negative = inhibition” value was inactive: -1.99%.
With COc1ccccc1NS(=O)(=O)c1ccc(C)c(C(=O)NCC(c2ccco2)N(C)C)c1 (configuration not stated) the “activity change, negative = inhibition” value was inactive: -7.32%.
In the case of CC1CCC(NC(=O)CCn2ccc3cc(S(=O)(=O)N4CCCC4)ccc32)CC1 (configuration not stated), the Potency is reported as inconclusive: 18.5 µM [inhibitor, single point].
In the case of CCc1cc2c(=O)c(-c3nc4ccccc4n3C)c(C)oc2c(CN2CCCCC2)c1O, the Potency is reported as inconclusive: 18.5 µM [inhibitor, partial curve, poor fit].
In the case of CCCCn1c(=O)[nH]c2nc3cc(NC(C)=O)ccc3nc2c1=O, the “activity change, negative = inhibition” value is reported as inactive: 2.31%.
In the case of COc1ccc(CCN(C)Cc2ccc(OC)c(OCc3ccccc3)c2)cc1OC, the Potency is reported as active: 10.4 µM.
For CC(=O)N1CC=C2C(C#N)=C(N)C(C#N)(C#N)C(C)C2C1 (configuration not stated), the Potency was inconclusive: 16.5 µM [inhibitor, single point].
With CCC(C(=O)NCCC1=CCCCC1)n1nc(C)c2c(C)n(-c3ccccc3)nc2c1=O (configuration not stated) the Potency was active: 11.7 µM.
With COc1cccc(NC(=O)CN2C(=O)COc3ccc(S(=O)(=O)N4CCCCCC4)cc32)c1 the Potency was inconclusive: 18.5 µM [inhibitor, single point].
For CN(C)CCCN(C(=O)c1ccco1)c1nc2ccc(Br)cc2s1, the Potency was inconclusive: 4.65 µM [inhibitor, partial curve, poor fit].
With CCN(CC)c1ccc(NC(=O)c2ccc3c(c2)OCO3)c(C)c1 the “activity change, negative = inhibition” value was inactive: 131%.
With COc1ccc(S(=O)(=O)NCc2cccnc2)cc1 the Potency was inconclusive: 18.5 µM [inhibitor, single point].
In the case of COc1cc(C(=O)NCC(=O)N/N=C/c2ccc(OC(=O)c3ccco3)cc2)cc(OC)c1OC, the Potency is reported as inconclusive: 0.0029 µM [inhibitor, full curve, poor fit].
With O=C(NCc1cccnc1)C(=O)C1C(=O)Nc2ccccc21 (configuration not stated) the “activity change, negative = inhibition” value was inactive: 12.8%.
For O=C(c1ccccc1Oc1ccc([N+](=O)[O-])cc1)N1CCOCC1, the “activity change, negative = inhibition” value was inactive: -22.2%.
In the case of Cc1cc(C)c(S(=O)(=O)CCC(C)C)c(=O)[nH]1, the Potency is reported as inconclusive: 18.5 µM [inhibitor, single point].
For CCCCn1c(N)c(N(CC(C)C)C(=O)C2CCN(S(=O)(=O)c3ccc(F)cc3)CC2)c(=O)[nH]c1=O, the Potency was inconclusive: 13.1 µM [inhibitor, single point].
In the case of O=C(NC1CCCCC1)C1CC(=O)N(c2ccccc2)C1 (configuration not stated), the Potency is reported as active: 3.29 µM.
With CCn1c(=O)c(=O)n(CC)c2cc(S(=O)(=O)Nc3cc(C)ccc3C)ccc21 the Potency was inconclusive: 2.33 µM [inhibitor, full curve].
In the case of Cc1cccc2c1N(CCOc1ccccc1)C(=O)C2=O, the Potency is reported as inconclusive: 1.31 µM [inhibitor, partial curve].
For COc1ccc(COC(=O)c2cccc(S(=O)(=O)N3CCN(C(C)=O)CC3)c2)cc1F, the Potency was inconclusive: 13.1 µM [inhibitor, partial curve, poor fit].
In the case of CC(C)(C)OC(=O)NOCC(=O)N(Cc1ccccc1)CC(O)COc1ccccc1 (configuration not stated), the Potency is reported as inconclusive: 18.5 µM [inhibitor, single point].
With Cc1ccc(C(O)c2ccc(-n3ccnc3)cc2)cc1 (configuration not stated) the Potency was inconclusive: 0.465 µM [inhibitor, full curve, poor fit].
For Cc1cc(-c2ccccc2)nc(SCC(=O)c2cccc([N+](=O)[O-])c2)n1, the Potency was inconclusive: 18.5 µM [inhibitor, single point].
In the case of COC(=O)COc1cc(Br)c(/C=C2/SC(=O)N(CC(=O)N3CCCC3)C2=O)cc1OC, the Potency is reported as inconclusive: 0.465 µM [inhibitor, full curve, poor fit].
With COc1ccc2c(c1)CC/C(=C/c1ccco1)C2=O the “activity change, negative = inhibition” value was inactive: 0.169%.
With Cc1ccc(C)c(NS(=O)(=O)c2c(C)ccc3nsnc23)c1 the Potency was inconclusive: 0.828 µM [inhibitor, full curve, poor fit].
With NNC(=S)Nc1ccc(C(F)(F)F)cc1Cl the Potency was inconclusive: 18.5 µM [inhibitor, single point].
With Nc1c(C(=O)NCc2ccc3c(c2)OCO3)nnn1CC(=O)Nc1ccc(Br)cc1 the “activity change, negative = inhibition” value was inactive: 31.4%.
For COc1ccc(S(=O)(=O)NC2CCCCC2)cc1-n1cnnn1, the Potency was active: 2.62 µM.
With COc1cccc(-c2nnc(NC(=O)c3ccc(Cl)s3)o2)c1 the Potency was active: 11.7 µM.
In the case of Cc1cc(OCC(=O)NCc2ccccn2)c2c(C)c(Cc3ccccc3)c(=O)oc2c1, the Potency is reported as inconclusive: 5.86 µM [inhibitor, partial curve, poor fit].
In the case of COc1cccc(NC(=O)c2nc(S(C)(=O)=O)ncc2Cl)c1, the “activity change, negative = inhibition” value is reported as inactive: 30.4%.
With CC(=O)N1[C@H](Cc2ccccc2)C=C[C@]1(C)C(=O)NCCN1CCOCC1 the Potency was inconclusive: 1.85 µM [inhibitor, single point].
With COc1ccc(Cl)cc1NC(=O)CSc1nc(C)cc(C)n1 the Potency was inconclusive: 10.4 µM [inhibitor, single point].
In the case of CC(=O)N1CCCc2cc(S(=O)(=O)N3CCCC(C(=O)NCc4ccccc4)C3)ccc21 (configuration not stated), the Potency is reported as inconclusive: 14.7 µM [inhibitor, single point].
For CC(=O)N1CCN(S(=O)(=O)c2cccc(C(=O)Nc3ccc4c(c3)CCC4)c2)CC1, the Potency was inconclusive: 11.7 µM [inhibitor, single point].
With Cn1c(COc2ccc(Cl)cc2)nnc1SCc1ncc(-c2ccccc2)o1 the Potency was inconclusive: 18.5 µM [inhibitor, single point].
For COc1ccc(N(CC(=O)NCCSc2ccccn2)S(=O)(=O)c2ccccc2)cc1Cl, the “activity change, negative = inhibition” value was inactive: 38.2%.
With COc1ccc2nc(NC(=O)C(NS(=O)(=O)c3cccs3)C(C)C)sc2c1 (configuration not stated) the “activity change, negative = inhibition” value was inactive: 83.4%.
For Fc1ccc(OCCCCN2CCOCC2)cc1, the Potency was inconclusive: 18.5 µM [inhibitor, single point].
In the case of Cc1ccc(NC(=O)CNc2ccc(Cl)cc2F)cc1, the Potency is reported as inconclusive: 9.28 µM [inhibitor, partial curve, poor fit].
In the case of C/C(=N\NC(=O)c1ccccc1O)C1C(=O)c2ccccc2C1=O, the Potency is reported as inconclusive: 10.4 µM [inhibitor, partial curve, poor fit].
In the case of O=C(CN1CCN(c2ccc(O)cc2)CC1)Nc1cc(S(=O)(=O)N2CCCC2)ccc1Cl, the Potency is reported as inconclusive: 11.7 µM [inhibitor, partial curve, poor fit].
In the case of COc1cccc(-c2noc(CCCC(=O)Nc3ccc(C(N)=O)cc3)n2)c1, the “activity change, negative = inhibition” value is reported as inactive: -16.6%.
With CCCSC1C(C)=C(C)C(=O)N1Cc1ccccc1 (configuration not stated) the Potency was inconclusive: 11.7 µM [inhibitor, partial curve, poor fit].

Reference: PubChem BioAssay AID504834 (National Center for Advancing Translational Sciences (NCATS), 2011)
On the % scale 0 is the no-effect control and ±100 the full control effect; potency means the concentration at half of the fitted maximal effect.
